{
  "source": "patent US5312812A",
  "about": "(Richter Gedeon Vegyeszeti Gyar Rt., priority 1990, dated 1994)",
  "test": "general procedure: solution-phase peptide synthesis; pentafluorophenyl (OPfp) active esters",
  "conditions": "treated with Dowex 2x8 anion exchange resin of acetate cycle",
  "note": "Strings that start with PEPTIDE1 are HELM notation: dots part the residues, brackets hold end groups and non-standard residues.",
  "data": [
    {"substance": "Glu-Asp-Cys-Lys", "values": [
      {"measurement": "step yield", "setting": "coupling step", "value": 81.3, "unit": "%"}
    ]},
    {"substance": "PEPTIDE1{E.D.[Cys(Acm)].K}$$$$V2.0", "values": [
      {"measurement": "step yield", "setting": "late stage modification step", "value": 40.0, "unit": "%"}
    ]},
    {"substance": "PEPTIDE1{[Glp].E.D.[Cys(Acm)].K}$$$$V2.0", "values": [
      {"measurement": "step yield", "setting": "late stage modification step, run 1", "value": 51.4, "unit": "%"},
      {"measurement": "step yield", "setting": "late stage modification step, run 2", "value": 58.8, "unit": "%"}
    ]}
  ]
}
